In US20120065065A1, “HERBICIDALLY ACTIVE PYRIDYLKETOSULTAMS” (BAYER CROPSCIENCE AG, priority 2010, published 2012):
Some results were stated once for a whole list of compounds, not compound by compound.

What was measured:
Format in all cases: in vivo
Matricaria inodora [1] = test: Pre-emergence herbicidal action against harmful plants; settings: application rate 1280 grams per hectare, scored visually after 3 to 4 weeks in greenhouse
Veronica persica [2] = test: as above; settings: application rate 1280 grams per hectare, scored visually after 3 to 4 weeks in greenhouse
Stellaria media [3] = test: as above; settings: application rate 1280 grams per hectare, scored visually after 3 to 4 weeks in greenhouse
Matricaria inodora [4] = test: Post-emergence herbicidal action against harmful plants; settings: three-leaf stage, application rate 1280 grams per hectare, scored visually after 3 to 4 weeks in greenhouse
Veronica persica [5] = test: as above; settings: three-leaf stage, application rate 1280 grams per hectare, scored visually after 3 to 4 weeks in greenhouse
Stellaria media [6] = test: as above; settings: three-leaf stage, application rate 1280 grams per hectare, scored visually after 3 to 4 weeks in greenhouse

O=S1(=O)C(c2ccccc2C(F)(F)F)=C(O)c2cccnc2N1CC(F)F [Ia-1, 1-(2,2-difluoroethyl)-3-[2-(trifluoromethyl)phenyl]-1H-pyrido[2,3-c][1,2]thiazin-4-ol 2,2-dioxide]
at least 80%: activity against Matricaria inodora (Matricaria inodora [1]) | activity against Veronica persica (Veronica persica [2]) | activity against Stellaria media (Stellaria media [3]) | activity against Matricaria inodora (Matricaria inodora [4]) | activity against Veronica persica (Veronica persica [5]) | activity against Stellaria media (Stellaria media [6])

O=S1(=O)C(c2ccccc2F)=C(O)c2cccnc2N1CC(F)F [Ia-2, 1-(2,2-difluoroethyl)-3-(2-fluorophenyl)-1H-pyrido[2,3-c][1,2]thiazin-4-ol 2,2-dioxide]
at least 80%: activity against Matricaria inodora (Matricaria inodora [4]) | activity against Veronica persica (Veronica persica [5]) | activity against Stellaria media (Stellaria media [6])

CSC(=O)OC1=C(c2ccccc2C(F)(F)F)S(=O)(=O)N(CC(F)F)c2ncccc21 [Ib-1, O-{1-(2,2-difluoroethyl)-2,2-dioxido-3-[2-(trifluoromethyl)phenyl]-1H-pyrido[2,3-c][1,2]thiazin-4-yl} S-methyl thiocarbonate]
at least 80%: activity against Matricaria inodora (Matricaria inodora [1]) | activity against Veronica persica (Veronica persica [2]) | activity against Stellaria media (Stellaria media [3])
